# Screening data

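Plate-reader measure of the Venus reporter marking one vaccinia stage in infected cells (the cell line is not named here); read time unknown. The test concentration is not given here. Percent change in Venus reporter signal; lower (more negative) values mean stronger inhibition of that viral stage.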

Values are in %. The controls that fix the scale are not given here. Common to all entries: measured here: Venus reporter, other viral stage. This is a side read-out of the assay, for part of the compounds, not drawn at random.

structure | activity change (Venus) (%)
C[C@@H]1CN([C@H](C)CO)C(=O)c2cc(NC(=O)Nc3ccc(F)cc3)ccc2O[C@@H]1CN(C)Cc1ccc(Cl)c(Cl)c1 | -27.34
O=C(C[C@H]1C[C@H]2c3cc(NS(=O)(=O)c4ccc(F)cc4)ccc3O[C@H]2[C@H](CO)O1)NCc1ccc(Oc2ccccc2)cc1 | -82.52
C[C@@H]1CCCCO[C@H](CN(C)C(=O)NC2CCCCC2)[C@H](C)CN([C@@H](C)CO)C(=O)c2cc(NC(=O)C3CCCCC3)ccc2O1 | -33.99
C[C@@H]1CCCCO[C@@H](CN(C)S(=O)(=O)c2ccccc2)[C@H](C)CN([C@H](C)CO)C(=O)c2cc(NS(=O)(=O)c3ccc(Cl)cc3)ccc2O1 | -56.59
O=C(Nc1cc(Cl)cc(Cl)c1)N[C@H]1CC[C@@H](CCNS(=O)(=O)c2cccc(F)c2)O[C@H]1CO | -47.77
C[C@@H]1CN([C@H](C)CO)C(=O)c2cc(NS(=O)(=O)c3ccc(Cl)cc3)ccc2O[C@@H](C)CCCCO[C@H]1CN(C)C(=O)Nc1ccc2c(c1)OCO2 | -39.28
C[C@@H]1CN([C@@H](C)CO)C(=O)c2cccc(NC(=O)c3ccc(-c4nccs4)cc3)c2O[C@H]1CN(C)CC1CCCCC1 | -41.03
COc1ccccc1CN1CC[C@@H]2[C@@H](CO)Nc3ccc(C#Cc4ccccc4)cc3[C@@H]21 | -29.9
C[C@@H]1CN([C@@H](C)CO)C(=O)c2cccc(NC(=O)C3CCCCC3)c2O[C@@H]1CN(C)S(=O)(=O)c1ccc(Cl)cc1 | -36.19
C/C=C/c1cnc2c(c1)C(=O)N([C@H](C)CO)C[C@H](C)[C@H](CN(C)C(=O)Nc1ccc(F)cc1)O2 | -49.69
COc1ccccc1NC(=O)N1CCCCN2[C@H](C1)[C@@H](c1ccc(-c3cccc(F)c3)cc1)[C@@H]2CO | -51.39
COc1ccc(NC(=O)Nc2ccc3c(c2)C(=O)N([C@@H](C)CO)C[C@H](C)[C@H](CN(C)Cc2ccc(Cl)c(Cl)c2)O3)cc1 | -42.22
C[C@H](CO)N1C[C@H](C)[C@H](CN(C)Cc2ccccc2)OCCCC[C@H](C)Oc2ccc(NC(=O)Nc3ccccc3)cc2C1=O | -59.82
O=C(c1ccc2c(c1)OCO2)N1CC(=O)N2[C@H](CO)[C@@H](c3ccc(-c4ccccc4)cc3)[C@H]2C1 | -28.05
COc1ccc(CN(C)C[C@@H]2OCCCC[C@H](C)Oc3ccc(NC(=O)c4ccccc4)cc3C(=O)N([C@@H](C)CO)C[C@H]2C)cc1 | -40.8
COc1ccc2c3c([nH]c2c1)[C@H](CO)N(C(=O)Nc1cccc(F)c1)CC31CCN(CC2CC2)CC1 | -61.27
O=C(NC1CCCC1)N1CCCCN2[C@@H](CO)[C@@H](c3ccc(/C=C/c4ccccc4)cc3)[C@@H]2C1 | -95.77
C[C@@H]1CN([C@@H](C)CO)C(=O)Cc2cc(NC(=O)Nc3ccc(F)cc3)ccc2O[C@H]1CN(C)Cc1ccc(Cl)c(Cl)c1 | -33.11
C[C@@H]1CN([C@@H](C)CO)C(=O)c2cc(NC(=O)Nc3ccc4c(c3)OCO4)ccc2O[C@@H]1CN(C)Cc1ccc(C(F)(F)F)cc1 | -57.61
CN1C(=O)c2cc(NS(=O)(=O)c3ccccc3F)ccc2OC[C@@H]2O[C@H](CC(=O)NC3Cc4ccccc4C3)CC[C@@H]21 | -54.45
COc1ccc(-c2ccc3c(c2)[C@H]2[C@H](CCN2C(=O)Cc2cccnc2)[C@H](CO)N3C)cc1 | -64.84
C[C@H]1CN([C@@H](C)CO)C(=O)c2cccc(NC(=O)NC3CCCCC3)c2O[C@H]1CN(C)S(=O)(=O)c1ccc(Cl)cc1 | -57.3
COc1cccc(C#Cc2ccc3c(c2)O[C@H](CN(C)C(=O)CN2CCOCC2)[C@H](C)CN([C@@H](C)CO)S3(=O)=O)c1 | -22.87
C[C@H](CO)N1C[C@H](C)[C@@H](CN(C)CC2CCCCC2)Oc2ccc(NS(=O)(=O)c3ccccc3)cc2CC1=O | -52.31
COc1ccc(S(=O)(=O)Nc2cccc3c2O[C@@H](CN(C)S(=O)(=O)c2ccc(OC)cc2)[C@@H](C)CN([C@@H](C)CO)C3=O)cc1 | -19.86
C[C@@H]1CCCCO[C@H](CN(C)Cc2ccncc2)[C@H](C)CN([C@H](C)CO)C(=O)c2cc(NC(=O)Nc3ccc4c(c3)OCO4)ccc2O1 | -34.13
C[C@@H]1CN([C@@H](C)CO)C(=O)c2cc(C#Cc3cccc(F)c3)cnc2O[C@@H]1CN(C)CC1CCCC1 | -50.33
O=C(C[C@@H]1CC[C@H]2[C@@H](COC[C@@H](O)CN2Cc2cc(F)ccc2F)O1)NCc1ccc(Oc2ccccc2)cc1 | -70.2
Cc1ccc(S(=O)(=O)N2C[C@@H](O)COC[C@H]3O[C@H](CC(=O)NCc4ccc(Cl)c(Cl)c4)CC[C@@H]32)cc1 | -44.77
CCCC#Cc1ccc([C@H]2[C@H]3CN(C(=O)Nc4ccc(F)cc4)CC(=O)N3[C@H]2CO)cc1 | -30.97
C[C@@H]1CN([C@H](C)CO)C(=O)c2cc(-c3ccccc3F)cnc2O[C@H]1CN(C)Cc1ccc(F)cc1 | -27.31
COc1ccccc1CN1[C@H](CO)[C@@H]2c3ccccc3N(C(=O)C3CCCCC3)C[C@@H]21 | -30.74
Cc1ccc(S(=O)(=O)N2CC[C@@H]3[C@H]2c2cc(-c4ccccc4F)ccc2N(C)[C@H]3CO)cc1 | -37.53
O=C(C[C@@H]1CC[C@@H]2[C@H](COC[C@H](O)CN2Cc2ccc(Oc3ccccc3)cc2)O1)N1CCCCC1 | -41.14
COc1ccc(NC(=O)Nc2ccc3c(c2)CC(=O)N([C@@H](C)CO)C[C@@H](C)[C@H](CN(C)CC2CCCCC2)O3)cc1 | -42.15
CCCN(C)C[C@H]1OCCCC[C@@H](C)Oc2ccc(N(C)C)cc2C(=O)N([C@@H](C)CO)C[C@H]1C | -25.74
Cc1ccccc1-c1ccc(C2[C@@H]3CN(C(=O)Cc4ccccc4)C[C@H]2N3)cc1 (some centres not stated) | -82.99
C[C@H](CO)N1C[C@H](C)[C@H](CN(C)S(=O)(=O)c2ccc(C#N)cc2)Oc2ncc(C#Cc3ccc(F)cc3)cc2C1=O | -55.93
CO[C@@H]1CN(C)C(=O)c2ccc(NC(=O)c3ccc(Oc4ccccc4)cc3)cc2OC[C@H](C)NC[C@@H]1C | -65.39
O=C(c1ccc(F)cc1)N1CCCCN2[C@H](CO)[C@H](c3ccc(-c4ccccc4)cc3)[C@@H]2C1 | -35.08
Cc1ccc(S(=O)(=O)Nc2ccc3c(c2)C(=O)N([C@@H](C)CO)C[C@H](C)[C@@H](CN(C)S(=O)(=O)c2c(C)noc2C)OCCCC[C@H](C)O3)cc1 | -38.77
C[C@H](CO)N1C[C@H](C)[C@H](CN(C)CC2CCCCC2)Oc2c(NC(=O)c3nc4ccccc4s3)cccc2C1=O | -44.12
C[C@H](CO)N1C[C@H](C)[C@H](CN(C)Cc2ccc(Oc3ccccc3)cc2)Oc2ccc(NS(=O)(=O)c3ccc(F)cc3)cc2CC1=O | -39.5
C[C@@H]1CN([C@H](C)CO)C(=O)c2c(c3ccccc3n2C)-c2ccccc2CO[C@@H]1CN(C)C(=O)c1cc(Cl)cc(Cl)c1 | -61.35
O=C(CN1CCOCC1)N1CC(=O)N2[C@H](C1)[C@H](c1ccc(/C=C/c3ccccc3)cc1)[C@@H]2CO | -49.65
C/C=C/c1ccc([C@H]2[C@@H](CO)N3CCCCN(S(=O)(=O)c4ccc(F)cc4)C[C@@H]23)cc1 | -34.71
CC(=O)N(C)C[C@H]1Oc2cc(C#CC3CCCCC3)ccc2S(=O)(=O)N([C@H](C)CO)C[C@H]1C | -45.03
O=C(Nc1ccc(C(F)(F)F)cc1)N1C[C@@H]2N[C@H](C1)C2c1ccc(/C=C/c2ccccc2)cc1 (some centres not stated) | -82.08
Cc1noc(C)c1S(=O)(=O)N(C)C[C@H]1OCCCC[C@H](C)Oc2ccc(NS(=O)(=O)c3ccccc3)cc2C(=O)N([C@H](C)CO)C[C@H]1C | -34.83
C[C@H](CO)N1C[C@H](C)[C@H](CN(C)Cc2cccc(C(F)(F)F)c2)Oc2ncc(-c3ccc(F)cc3)cc2C1=O | -54.36
CCCC#Cc1ccc2c(c1)O[C@H](CN(C)C(=O)c1ccccc1)[C@H](C)CN([C@@H](C)CO)S2(=O)=O | -29.93
CC(C)NC(=O)Nc1ccc2c(c1)C(=O)N([C@@H](C)CO)C[C@@H](C)[C@H](CN(C)Cc1ccc(C(F)(F)F)cc1)OCCCC[C@@H](C)O2 | -55.64
C[C@@H]1CCCCO[C@@H](CN(C)Cc2ccccc2)[C@@H](C)CN([C@@H](C)CO)C(=O)c2cc(NC(=O)C3CCCCC3)ccc2O1 | -39.62
C[C@@H]1CN([C@H](C)CO)C(=O)c2c(c3ccccc3n2C)-c2ccccc2CO[C@@H]1CN(C)C(=O)Oc1ccccc1 | -35.22
C[C@@H]1CN([C@H](C)CO)C(=O)c2cc(/C=C/c3ccccc3)cnc2O[C@H]1CN(C)C(=O)c1ccc(F)cc1 | -45.69
C[C@@H]1CN([C@H](C)CO)S(=O)(=O)c2ccc(-c3cccc(F)c3)cc2O[C@H]1CN(C)S(=O)(=O)c1ccc(F)cc1 | -40.48
COc1ccc(CN(C)C[C@@H]2OCCCC[C@@H](C)Oc3ccc(NC(=O)NC4CCCCC4)cc3C(=O)N([C@@H](C)CO)C[C@@H]2C)cc1 | -35.17
O=C(C1CC1)N1CC(=O)N2[C@H](CO)[C@@H](c3ccc(C#Cc4cccc(F)c4)cc3)[C@@H]2C1 | -46.33

The first 4 entries again:

{"structure": "C[C@@H]1CN([C@H](C)CO)C(=O)c2cc(NC(=O)Nc3ccc(F)cc3)ccc2O[C@@H]1CN(C)Cc1ccc(Cl)c(Cl)c1", "activity change (Venus) (%)": "-27.34"}
{"structure": "O=C(C[C@H]1C[C@H]2c3cc(NS(=O)(=O)c4ccc(F)cc4)ccc3O[C@H]2[C@H](CO)O1)NCc1ccc(Oc2ccccc2)cc1", "activity change (Venus) (%)": "-82.52"}
{"structure": "C[C@@H]1CCCCO[C@H](CN(C)C(=O)NC2CCCCC2)[C@H](C)CN([C@@H](C)CO)C(=O)c2cc(NC(=O)C3CCCCC3)ccc2O1", "activity change (Venus) (%)": "-33.99"}
{"structure": "C[C@@H]1CCCCO[C@@H](CN(C)S(=O)(=O)c2ccccc2)[C@H](C)CN([C@H](C)CO)C(=O)c2cc(NS(=O)(=O)c3ccc(Cl)cc3)ccc2O1", "activity change (Venus) (%)": "-56.59"}

From PubChem BioAssay record AID1053133 (Broad Institute, 2014).